Measured values published in article doi:10.1101/2022.12.08.519103 (bioRxiv, 2022).
Results are given in words; binding and its absence hold for the method and conditions named. Some entries that bind do so weakly or less than the wild type. For part of these data: Tags and fused reporters may be left off the sequences shown.

The chains behind the UniProt entries cited, without tags or fusion partners. Where a name states a change or a piece, a line headed by the entry shows the natural chain unless it says otherwise.
UniProt P31946: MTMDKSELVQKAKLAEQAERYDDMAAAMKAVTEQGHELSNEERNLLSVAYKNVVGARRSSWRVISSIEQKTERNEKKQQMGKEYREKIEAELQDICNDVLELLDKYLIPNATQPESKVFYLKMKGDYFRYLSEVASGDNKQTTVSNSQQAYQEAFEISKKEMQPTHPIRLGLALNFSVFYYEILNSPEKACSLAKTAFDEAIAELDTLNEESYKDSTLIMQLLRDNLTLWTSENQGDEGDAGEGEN
UniProt P63104: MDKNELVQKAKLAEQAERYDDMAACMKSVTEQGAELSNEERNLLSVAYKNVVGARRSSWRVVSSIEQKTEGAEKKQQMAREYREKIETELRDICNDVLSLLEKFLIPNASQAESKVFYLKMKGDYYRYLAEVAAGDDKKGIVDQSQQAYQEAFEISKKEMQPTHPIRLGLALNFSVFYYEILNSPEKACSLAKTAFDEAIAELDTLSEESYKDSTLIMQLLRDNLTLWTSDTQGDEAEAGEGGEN
UniProt Q8WUI4: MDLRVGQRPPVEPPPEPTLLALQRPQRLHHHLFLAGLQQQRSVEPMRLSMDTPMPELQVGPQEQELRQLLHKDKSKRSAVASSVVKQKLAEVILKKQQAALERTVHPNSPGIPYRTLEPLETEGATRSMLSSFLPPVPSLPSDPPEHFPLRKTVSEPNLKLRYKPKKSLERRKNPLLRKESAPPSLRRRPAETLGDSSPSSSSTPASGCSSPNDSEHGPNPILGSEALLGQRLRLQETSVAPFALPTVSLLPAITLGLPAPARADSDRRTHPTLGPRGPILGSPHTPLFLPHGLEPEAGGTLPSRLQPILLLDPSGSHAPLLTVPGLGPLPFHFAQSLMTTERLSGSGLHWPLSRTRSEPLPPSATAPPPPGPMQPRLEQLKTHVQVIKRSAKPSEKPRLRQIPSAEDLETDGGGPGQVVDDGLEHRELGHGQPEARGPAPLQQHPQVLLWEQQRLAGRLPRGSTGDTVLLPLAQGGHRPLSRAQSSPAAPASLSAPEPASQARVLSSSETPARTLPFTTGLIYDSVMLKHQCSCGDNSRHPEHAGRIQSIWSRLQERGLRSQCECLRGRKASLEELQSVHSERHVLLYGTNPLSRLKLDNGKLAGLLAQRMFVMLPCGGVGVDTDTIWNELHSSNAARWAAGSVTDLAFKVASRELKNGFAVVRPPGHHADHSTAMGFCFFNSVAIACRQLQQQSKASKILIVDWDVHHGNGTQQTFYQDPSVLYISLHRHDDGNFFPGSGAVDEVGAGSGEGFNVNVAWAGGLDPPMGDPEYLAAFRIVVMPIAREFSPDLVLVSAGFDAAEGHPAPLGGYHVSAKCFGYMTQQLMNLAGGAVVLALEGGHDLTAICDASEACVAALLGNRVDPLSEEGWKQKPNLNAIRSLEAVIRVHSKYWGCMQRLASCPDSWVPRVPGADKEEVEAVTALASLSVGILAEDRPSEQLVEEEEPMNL
UniProt Q00537: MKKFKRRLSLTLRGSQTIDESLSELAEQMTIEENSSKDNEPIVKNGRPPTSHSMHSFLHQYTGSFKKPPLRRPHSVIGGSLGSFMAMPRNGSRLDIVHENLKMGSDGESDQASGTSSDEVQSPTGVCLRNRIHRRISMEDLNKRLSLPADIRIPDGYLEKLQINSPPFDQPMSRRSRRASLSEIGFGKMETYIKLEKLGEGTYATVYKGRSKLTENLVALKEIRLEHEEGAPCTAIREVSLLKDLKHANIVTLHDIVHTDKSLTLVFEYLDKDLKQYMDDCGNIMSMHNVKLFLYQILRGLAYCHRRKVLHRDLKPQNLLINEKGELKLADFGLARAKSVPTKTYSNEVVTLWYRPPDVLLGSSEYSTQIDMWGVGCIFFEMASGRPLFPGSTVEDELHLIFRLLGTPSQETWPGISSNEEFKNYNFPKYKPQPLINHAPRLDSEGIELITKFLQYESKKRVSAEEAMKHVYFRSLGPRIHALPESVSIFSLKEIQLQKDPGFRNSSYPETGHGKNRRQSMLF

Key:
Assay in all cases: Holdup Multiplex
[1] = molecular target: AviTag-His6-MBP-TEVsite-14-3-3β (human) (UniProt P31946)
[2] = molecular target: AviTag-His6-MBP-TEVsite-14-3-3ζ (human) (UniProt P63104)
[3] = molecular target: T1, AviTag-His6-MBP-TEVsite-14-3-3η (human) (UniProt Q04917)
T1 sequence: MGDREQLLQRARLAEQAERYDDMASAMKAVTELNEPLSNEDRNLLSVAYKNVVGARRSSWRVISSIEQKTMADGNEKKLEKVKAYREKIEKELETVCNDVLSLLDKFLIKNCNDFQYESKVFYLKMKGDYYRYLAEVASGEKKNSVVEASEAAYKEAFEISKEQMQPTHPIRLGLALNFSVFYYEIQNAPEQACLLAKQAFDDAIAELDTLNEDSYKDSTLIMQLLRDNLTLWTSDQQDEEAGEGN

[4] = molecular target: T2, AviTag-His6-MBP-TEVsite-14-3-3τ (human) (UniProt P27348)
T2 sequence: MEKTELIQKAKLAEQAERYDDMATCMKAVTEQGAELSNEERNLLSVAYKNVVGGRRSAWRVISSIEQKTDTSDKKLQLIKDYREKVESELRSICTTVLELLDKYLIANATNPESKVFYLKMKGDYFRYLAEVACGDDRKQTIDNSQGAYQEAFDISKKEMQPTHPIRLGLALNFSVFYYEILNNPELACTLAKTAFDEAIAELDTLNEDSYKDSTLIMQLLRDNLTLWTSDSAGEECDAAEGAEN

[5] = molecular target: T3, AviTag-His6-MBP-TEVsite-14-3-3γ (human, UniProt P61981 1-247)
T3 sequence (looked up): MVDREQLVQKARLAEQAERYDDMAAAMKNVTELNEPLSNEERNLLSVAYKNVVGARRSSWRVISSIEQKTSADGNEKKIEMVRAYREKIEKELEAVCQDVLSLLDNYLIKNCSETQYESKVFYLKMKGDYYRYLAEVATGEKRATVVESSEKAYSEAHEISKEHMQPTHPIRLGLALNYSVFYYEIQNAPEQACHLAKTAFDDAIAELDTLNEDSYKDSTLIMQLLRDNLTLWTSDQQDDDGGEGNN

[6] = molecular target: T4, AviTag-His6-MBP-TEVsite-14-3-3ε (human, UniProt P62258 1-255)
T4 sequence (looked up): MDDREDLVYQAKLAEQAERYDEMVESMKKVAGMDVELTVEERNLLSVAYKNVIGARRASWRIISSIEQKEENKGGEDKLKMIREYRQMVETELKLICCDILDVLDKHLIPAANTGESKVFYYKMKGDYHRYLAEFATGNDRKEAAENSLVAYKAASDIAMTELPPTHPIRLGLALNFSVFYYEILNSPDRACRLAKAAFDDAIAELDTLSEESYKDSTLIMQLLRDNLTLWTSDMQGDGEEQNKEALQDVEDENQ

Measured: binding

LSRTRSEPLP (peptide, UniProt Q8WUI4 353-362, phosphoserine at 358) [phosphopeptide centered on pSer358 from HDAC7]
binds: all assays above

LRRPHSVIGG (peptide, UniProt Q00537 70-79, phosphoserine at 75) [phosphopeptide centered on pSer75 from CDK17]
binds: all assays above
